Test results from the supplement of paper PMC4604168 (melanoma cell lines).
Some of the results follow. Many values rest on one well or one pass, so single values are uncertain.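 The apoptosis fraction was the count of cleaved-PARP antibody-stained nuclei relative to all DNA-stained nuclei, imaged in 1,536-well plates. Screening doses were set so most cells survived, and baseline and induced cleaved-PARP levels vary greatly across cell lines.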

Columns and labels:
Assay in all cases: cleaved PARP positive nuclei fraction relative to DMSO control; melanoma cells; higher = more apoptosis
Settings in all cases: library dose: low library concentration; 72 h
[1] = system: 501Mel
[2] = system: A101D
[3] = system: A2058
[4] = system: C32
[5] = system: CBRC008 (line from a melanoma biopsy)
[6] = system: CBRC014 (line from a melanoma biopsy)
[7] = system: CBRC016 (line from a melanoma biopsy)
[8] = system: CBRC017 (line from a melanoma biopsy)

Compound	cleaved PARP positive nuclei fraction [1] [%]	cleaved PARP positive nuclei fraction [2] [%]	cleaved PARP positive nuclei fraction [3] [%]	cleaved PARP positive nuclei fraction [4] [%]	cleaved PARP positive nuclei fraction [5] [%]	cleaved PARP positive nuclei fraction [6] [%]	cleaved PARP positive nuclei fraction [7] [%]	cleaved PARP positive nuclei fraction [8] [%]
CC1(C)CCC(c2ccc(Cl)cc2)=C(CN2CCN(c3ccc(C(=O)NS(=O)(=O)c4ccc(N[C@H](CCN5CCOCC5)CSc5ccccc5)c(S(=O)(=O)C(F)(F)F)c4)cc3)CC2)C1 + Cn1cc(/C=C2\C(=O)Nc3cccnc32)c2ccccc21 [GW441756] (first compound 0.4 µM, partner dose 0.4 µM)	78	28.9	68.5	220	683	287	301	160
C[C@@H](N)c1ccc(C(=O)Nc2ccnc3[nH]ccc23)cc1 + COc1ccc2c(c1)CCC1C2CCC2(C)C(NCCCCCCN3C(=O)C=CC3=O)CCC12 [U73122] (first compound 0.4 µM, partner dose 0.4 µM)	256	46.3	181	44.1	126	179	114	233
CN(c1ncccc1CNc1nc(Nc2ccc3c(c2)CC(=O)N3)ncc1C(F)(F)F)S(C)(=O)=O + COc1ccc2c(c1)CCC1C2CCC2(C)C(NCCCCCCN3C(=O)C=CC3=O)CCC12 [U73122] (first compound 0.08 µM, partner dose 0.4 µM)	81.9	21	81.9	45.4	157	95.1	75.3	77.4
Cn1sc(=O)n(Cc2ccccc2)c1=O + COc1ccc(COc2ccc(Cc3cnc(N)nc3N)cc2OC)cc1 [GW2580] (first compound 0.4 µM, partner dose 1 µM)	138	16.7	84.7	96.6	35.1	87.8	51	57.4
CN(c1ncccc1CNc1nc(Nc2ccc3c(c2)CC(=O)N3)ncc1C(F)(F)F)S(C)(=O)=O + COc1cc2ncnc(Nc3ccc(Oc4ccccc4)cc3)c2cc1OC [SrcI1] (first compound 0.08 µM, partner dose 2 µM)	63.9	10.9	149	58.1	65.6	89.9	57.9	288
NC1(c2ccc(-c3nc4ccn5c(=O)[nH]nc5c4cc3-c3ccccc3)cc2)CCC1 + CCCCCCCCCCCC1=C(O)C(=O)C=C(O)C1=O [Embelin] (first compound 0.4 µM, partner dose 1.2 µM)	142	13.6	200	196	92.5	88.2	38.9	85.2
CN(c1ncccc1CNc1nc(Nc2ccc3c(c2)CC(=O)N3)ncc1C(F)(F)F)S(C)(=O)=O + O=c1cc(-c2cccc3c2Sc2ccccc2S3)oc(N2CCOCC2)c1 [KU55933] (first compound 0.08 µM, partner dose 1 µM)	65.6	13.5	117	924	463	79.8	81.7	99.5
Cn1cnc2c(F)c(Nc3ccc(Br)cc3Cl)c(C(=O)NOCCO)cc21 [selumetinib] + O=c1cc(-c2cccc3c2Sc2ccccc2S3)oc(N2CCOCC2)c1 [KU55933] (first compound 0.015 µM, partner dose 1 µM)	297	14.7	69.2	31.3	86.3	156	76	141
CC1(C)CCC(c2ccc(Cl)cc2)=C(CN2CCN(c3ccc(C(=O)NS(=O)(=O)c4ccc(N[C@H](CCN5CCOCC5)CSc5ccccc5)c(S(=O)(=O)C(F)(F)F)c4)cc3)CC2)C1 + O=C(O)C(=O)Nc1sc2c(c1C(=O)O)CCNC2 [TCS401] (first compound 0.4 µM, partner dose 1.66667 µM)	237	20.5	168	129	150	575	361	263
CC(=O)O[C@@]12CO[C@@H]1C[C@H](O)[C@@]1(C)C(=O)[C@H](O)C3=C(C)[C@@H](OC(=O)[C@H](O)[C@@H](NC(=O)OC(C)(C)C)c4ccccc4)C[C@@](O)([C@@H](OC(=O)c4ccccc4)[C@H]21)C3(C)C [Docetaxel] + O=C1NC(=O)/C(=C/c2ccc(-c3ccc(F)cc3O)o2)S1 [AS252424] (first compound 0.0001 µM, partner dose 1 µM)	208	35	2250	700	520	129	225	174
NC1(c2ccc(-c3nc4ccn5c(=O)[nH]nc5c4cc3-c3ccccc3)cc2)CCC1 + Oc1cc(-c2nc(-c3ccccc3)[nH]c2-c2ccncc2)ccc1Cl [L779450] (first compound 0.4 µM, partner dose 0.2 µM)	143	31.3	105	163	58.4	107	120	86.6
C[C@]1(O)C[C@@H](c2nc(-c3ccc4ccc(-c5ccccc5)nc4c3)c3c(N)nccn32)C1 + COc1cc2ncnc(Nc3ccc(Oc4ccccc4)cc3)c2cc1OC [SrcI1] (first compound 0.4 µM, partner dose 2 µM)	83.9	19.7	88.3	90.8	111	104	42.4	116
CCCCCCCCc1ccc(CCC(N)(CO)CO)cc1 [fingolimod] + Oc1cc(-c2nc(-c3ccccc3)[nH]c2-c2ccncc2)ccc1Cl [L779450] (first compound 2 µM, partner dose 0.2 µM)	106	20.7	118	45.7	57.3	92.9	738	94.5
CC1(C)CCC(c2ccc(Cl)cc2)=C(CN2CCN(c3ccc(C(=O)NS(=O)(=O)c4ccc(N[C@H](CCN5CCOCC5)CSc5ccccc5)c(S(=O)(=O)C(F)(F)F)c4)cc3)CC2)C1 + O=C1NC(=O)/C(=C/c2ccc(-c3ccc(F)cc3O)o2)S1 [AS252424] (first compound 0.4 µM, partner dose 1 µM)	220	112	108	763	792	1850	238	511
COc1ccc(C2=N[C@@H](c3ccc(Cl)cc3)[C@@H](c3ccc(Cl)cc3)N2C(=O)N2CCNC(=O)C2)c(OC(C)C)c1 [Nutlin-3] + COc1ccc2c(c1)CCC1C2CCC2(C)C(NCCCCCCN3C(=O)C=CC3=O)CCC12 [U73122] (first compound 0.1 µM, partner dose 0.4 µM)	69.7	34.9	192	111	236	111	123	109
C[C@]1(O)C[C@@H](c2nc(-c3ccc4ccc(-c5ccccc5)nc4c3)c3c(N)nccn32)C1 + COc1ccc(COc2ccc(Cc3cnc(N)nc3N)cc2OC)cc1 [GW2580] (first compound 0.4 µM, partner dose 1 µM)	39.4	19.5	97.8	160	242	105	60.8	93.9
CC(=O)O[C@@]12CO[C@@H]1C[C@H](O)[C@@]1(C)C(=O)[C@H](O)C3=C(C)[C@@H](OC(=O)[C@H](O)[C@@H](NC(=O)OC(C)(C)C)c4ccccc4)C[C@@](O)([C@@H](OC(=O)c4ccccc4)[C@H]21)C3(C)C [Docetaxel] + Oc1nc(-c2ccc(C(F)(F)F)cc2)nc2c1CSCC2 [XAV939] (first compound 0.0001 µM, partner dose 2 µM)	172	20.9	2710	308	292	178	133	137
C[C@@H](N)c1ccc(C(=O)Nc2ccnc3[nH]ccc23)cc1 + Cn1cc(/C=C2\C(=O)Nc3cccnc32)c2ccccc21 [GW441756] (first compound 0.4 µM, partner dose 0.4 µM)	83.7	12.9	44.9	112	140	104	200	106
COc1ccc(C2=N[C@@H](c3ccc(Cl)cc3)[C@@H](c3ccc(Cl)cc3)N2C(=O)N2CCNC(=O)C2)c(OC(C)C)c1 [Nutlin-3] + COc1cc(N2CCC(N3CCN(C)CC3)CC2)ccc1Nc1ncc(Cl)c(Nc2ccccc2S(=O)(=O)C(C)C)n1 [NVP-TAE684] (first compound 0.1 µM, partner dose 0.08 µM)	74.1	23	82.5	82.7	154	102	54.4	75.5
COc1ccc(C2=N[C@@H](c3ccc(Cl)cc3)[C@@H](c3ccc(Cl)cc3)N2C(=O)N2CCNC(=O)C2)c(OC(C)C)c1 [Nutlin-3] + CCc1ccc(CCOc2ccc(CC3SC(=O)NC3=O)cc2)nc1 [pioglitazone] (first compound 0.1 µM, partner dose 2 µM)	178	48.7	39.3	289	135	108	38.9	140
Cn1cnc2c(F)c(Nc3ccc(Br)cc3Cl)c(C(=O)NOCCO)cc21 [selumetinib] + COc1ccc(COc2ccc(Cc3cnc(N)nc3N)cc2OC)cc1 [GW2580] (first compound 0.015 µM, partner dose 1 µM)	413	28.1	96.3	99.9	130	79.5	37.7	107
CS(=O)(=O)c1ccc(C(=O)Nc2ccc(Cl)c(-c3ccccn3)c2)c(Cl)c1 [vismodegib] + COc1ccc2c(c1)CCC1C2CCC2(C)C(NCCCCCCN3C(=O)C=CC3=O)CCC12 [U73122] (first compound 1 µM, partner dose 0.4 µM)	99.2	14.1	84.6	84.6	58.8	112	48.6	48.1
CC(=O)O[C@@]12CO[C@@H]1C[C@H](O)[C@@]1(C)C(=O)[C@H](O)C3=C(C)[C@@H](OC(=O)[C@H](O)[C@@H](NC(=O)OC(C)(C)C)c4ccccc4)C[C@@](O)([C@@H](OC(=O)c4ccccc4)[C@H]21)C3(C)C [Docetaxel] + COc1ccc(-c2ccc3c(N4CCOCC4)nc(N4C[C@@H](C)O[C@@H](C)C4)nc3n2)cc1CO [KU0063794] (first compound 0.0001 µM, partner dose 0.02 µM)	48.2	66.7	4660	184	602	207	465	332

Complete entries from above:
C[C@]1(O)C[C@@H](c2nc(-c3ccc4ccc(-c5ccccc5)nc4c3)c3c(N)nccn32)C1 + COc1ccc(COc2ccc(Cc3cnc(N)nc3N)cc2OC)cc1 [GW2580] (first compound 0.4 µM, partner dose 1 µM) as listed: cleaved PARP positive nuclei fraction [1] [%]: 39.4; cleaved PARP positive nuclei fraction [2] [%]: 19.5; cleaved PARP positive nuclei fraction [3] [%]: 97.8; cleaved PARP positive nuclei fraction [4] [%]: 160; cleaved PARP positive nuclei fraction [5] [%]: 242; cleaved PARP positive nuclei fraction [6] [%]: 105; cleaved PARP positive nuclei fraction [7] [%]: 60.8; cleaved PARP positive nuclei fraction [8] [%]: 93.9
Cn1cnc2c(F)c(Nc3ccc(Br)cc3Cl)c(C(=O)NOCCO)cc21 [selumetinib] + O=c1cc(-c2cccc3c2Sc2ccccc2S3)oc(N2CCOCC2)c1 [KU55933] (first compound 0.015 µM, partner dose 1 µM) as listed: cleaved PARP positive nuclei fraction [1] [%]: 297; cleaved PARP positive nuclei fraction [2] [%]: 14.7; cleaved PARP positive nuclei fraction [3] [%]: 69.2; cleaved PARP positive nuclei fraction [4] [%]: 31.3; cleaved PARP positive nuclei fraction [5] [%]: 86.3; cleaved PARP positive nuclei fraction [6] [%]: 156; cleaved PARP positive nuclei fraction [7] [%]: 76; cleaved PARP positive nuclei fraction [8] [%]: 141
